The exact form of at least one protein or probe is not confirmed. For part of these data: Protein sequences can lack the tags named with them.
Assays:
Test in all cases: protein microarray
Conditions in all cases: 10-fold cold unmethylated competitor; 5mC at CpG (SssI, both strands); recombinant protein; protein details: GST (N-terminal); label: Cy5
[1] = target: ZNF114 (Homo sapiens) (UniProt Q8NC26)
[2] = target: ZNF416 (Homo sapiens) (UniProt Q9BWM5)
[3] = target: ZNF695 (Homo sapiens) (UniProt Q8IW36)
[4] = target: E2F3 (Homo sapiens) (UniProt O00716)
[5] = target: T1, NRF1 (Homo sapiens) (UniProt Q16656)
T1 sequence (looked up, limits assumed): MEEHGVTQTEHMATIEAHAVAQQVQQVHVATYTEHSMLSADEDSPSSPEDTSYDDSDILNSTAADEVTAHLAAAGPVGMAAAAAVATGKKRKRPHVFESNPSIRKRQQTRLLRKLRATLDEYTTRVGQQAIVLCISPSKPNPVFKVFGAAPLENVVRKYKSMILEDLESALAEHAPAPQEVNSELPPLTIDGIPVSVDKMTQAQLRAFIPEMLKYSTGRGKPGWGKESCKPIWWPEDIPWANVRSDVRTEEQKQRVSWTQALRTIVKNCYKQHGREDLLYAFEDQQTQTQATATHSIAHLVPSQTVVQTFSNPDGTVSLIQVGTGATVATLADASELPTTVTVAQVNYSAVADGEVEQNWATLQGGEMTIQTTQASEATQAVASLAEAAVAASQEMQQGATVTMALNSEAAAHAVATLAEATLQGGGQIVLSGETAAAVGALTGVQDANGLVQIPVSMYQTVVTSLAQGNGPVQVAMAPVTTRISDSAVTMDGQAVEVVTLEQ

Sequences of proteins named here, by UniProt entry; tags and fusion partners are left off. A change or cut given only in a name is not applied to a line headed by its entry.
UniProt Q8NC26: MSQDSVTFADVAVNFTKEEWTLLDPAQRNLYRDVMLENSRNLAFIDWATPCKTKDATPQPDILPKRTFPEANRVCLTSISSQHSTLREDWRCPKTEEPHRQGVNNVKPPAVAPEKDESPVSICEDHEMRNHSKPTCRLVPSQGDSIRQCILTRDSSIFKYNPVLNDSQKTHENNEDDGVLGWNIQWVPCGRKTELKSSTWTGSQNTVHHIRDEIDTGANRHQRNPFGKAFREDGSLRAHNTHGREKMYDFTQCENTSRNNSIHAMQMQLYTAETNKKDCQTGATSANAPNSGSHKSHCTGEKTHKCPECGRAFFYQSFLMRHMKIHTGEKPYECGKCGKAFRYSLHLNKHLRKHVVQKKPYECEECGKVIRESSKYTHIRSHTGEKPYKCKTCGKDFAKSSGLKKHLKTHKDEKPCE
UniProt Q9BWM5: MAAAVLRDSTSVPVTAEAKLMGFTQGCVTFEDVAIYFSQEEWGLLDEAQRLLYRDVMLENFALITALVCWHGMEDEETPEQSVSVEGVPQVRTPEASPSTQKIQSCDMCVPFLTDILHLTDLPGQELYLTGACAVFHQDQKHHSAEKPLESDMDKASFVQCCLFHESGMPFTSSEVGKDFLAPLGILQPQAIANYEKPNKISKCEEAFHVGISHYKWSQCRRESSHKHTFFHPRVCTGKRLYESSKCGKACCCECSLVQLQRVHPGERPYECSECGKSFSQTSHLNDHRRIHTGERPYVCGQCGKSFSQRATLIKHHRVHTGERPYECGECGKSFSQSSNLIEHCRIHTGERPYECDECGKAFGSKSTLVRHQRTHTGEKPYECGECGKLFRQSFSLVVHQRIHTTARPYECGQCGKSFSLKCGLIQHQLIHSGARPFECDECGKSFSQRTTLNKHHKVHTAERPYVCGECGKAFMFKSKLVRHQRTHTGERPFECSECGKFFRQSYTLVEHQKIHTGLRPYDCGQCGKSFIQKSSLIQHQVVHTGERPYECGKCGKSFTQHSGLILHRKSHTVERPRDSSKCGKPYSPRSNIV
UniProt Q8IW36: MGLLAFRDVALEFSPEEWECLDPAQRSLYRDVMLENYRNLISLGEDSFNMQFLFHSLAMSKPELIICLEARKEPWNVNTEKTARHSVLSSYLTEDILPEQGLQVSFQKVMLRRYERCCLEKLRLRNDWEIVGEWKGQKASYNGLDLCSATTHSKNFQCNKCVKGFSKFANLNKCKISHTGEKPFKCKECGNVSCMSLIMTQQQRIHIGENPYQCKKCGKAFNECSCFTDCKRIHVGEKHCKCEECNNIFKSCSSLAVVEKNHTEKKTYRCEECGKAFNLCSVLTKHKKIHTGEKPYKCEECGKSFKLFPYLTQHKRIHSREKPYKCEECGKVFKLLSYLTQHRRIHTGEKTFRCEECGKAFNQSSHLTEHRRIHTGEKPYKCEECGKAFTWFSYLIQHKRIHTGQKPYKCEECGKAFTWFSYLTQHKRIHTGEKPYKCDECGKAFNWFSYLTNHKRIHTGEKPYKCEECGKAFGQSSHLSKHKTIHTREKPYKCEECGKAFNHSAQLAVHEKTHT
UniProt O00716: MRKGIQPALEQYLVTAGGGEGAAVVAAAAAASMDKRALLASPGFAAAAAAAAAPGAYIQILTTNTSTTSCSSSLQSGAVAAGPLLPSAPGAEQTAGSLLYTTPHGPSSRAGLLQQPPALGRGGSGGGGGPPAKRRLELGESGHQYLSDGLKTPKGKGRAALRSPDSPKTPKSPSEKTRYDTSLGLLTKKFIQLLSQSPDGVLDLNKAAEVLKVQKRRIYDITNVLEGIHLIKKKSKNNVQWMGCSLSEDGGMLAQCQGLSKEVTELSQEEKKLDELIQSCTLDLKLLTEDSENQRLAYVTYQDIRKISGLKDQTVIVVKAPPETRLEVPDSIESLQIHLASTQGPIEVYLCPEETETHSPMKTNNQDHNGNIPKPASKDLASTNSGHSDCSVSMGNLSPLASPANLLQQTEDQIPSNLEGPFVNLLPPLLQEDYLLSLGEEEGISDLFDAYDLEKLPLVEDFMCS
UniProt P20719: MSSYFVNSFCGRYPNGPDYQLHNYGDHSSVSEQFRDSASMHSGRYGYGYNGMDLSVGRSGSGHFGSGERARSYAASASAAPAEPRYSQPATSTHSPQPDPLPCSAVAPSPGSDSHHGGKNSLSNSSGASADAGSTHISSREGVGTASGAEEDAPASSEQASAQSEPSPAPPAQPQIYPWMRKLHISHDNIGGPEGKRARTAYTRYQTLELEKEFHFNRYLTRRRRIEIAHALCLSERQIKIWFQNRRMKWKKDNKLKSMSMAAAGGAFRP
UniProt P43694: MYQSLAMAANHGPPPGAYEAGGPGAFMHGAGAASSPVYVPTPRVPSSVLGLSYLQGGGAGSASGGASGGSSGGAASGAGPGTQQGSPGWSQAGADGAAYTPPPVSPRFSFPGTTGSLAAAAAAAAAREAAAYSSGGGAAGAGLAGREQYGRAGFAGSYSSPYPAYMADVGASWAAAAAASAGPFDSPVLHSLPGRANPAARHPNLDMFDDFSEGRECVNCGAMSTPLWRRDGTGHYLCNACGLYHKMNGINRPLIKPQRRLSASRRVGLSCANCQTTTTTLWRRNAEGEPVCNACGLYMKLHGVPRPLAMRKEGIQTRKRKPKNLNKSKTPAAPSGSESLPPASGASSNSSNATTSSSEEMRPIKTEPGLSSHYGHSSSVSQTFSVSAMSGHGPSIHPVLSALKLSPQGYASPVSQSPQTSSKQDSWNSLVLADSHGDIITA
UniProt P37231: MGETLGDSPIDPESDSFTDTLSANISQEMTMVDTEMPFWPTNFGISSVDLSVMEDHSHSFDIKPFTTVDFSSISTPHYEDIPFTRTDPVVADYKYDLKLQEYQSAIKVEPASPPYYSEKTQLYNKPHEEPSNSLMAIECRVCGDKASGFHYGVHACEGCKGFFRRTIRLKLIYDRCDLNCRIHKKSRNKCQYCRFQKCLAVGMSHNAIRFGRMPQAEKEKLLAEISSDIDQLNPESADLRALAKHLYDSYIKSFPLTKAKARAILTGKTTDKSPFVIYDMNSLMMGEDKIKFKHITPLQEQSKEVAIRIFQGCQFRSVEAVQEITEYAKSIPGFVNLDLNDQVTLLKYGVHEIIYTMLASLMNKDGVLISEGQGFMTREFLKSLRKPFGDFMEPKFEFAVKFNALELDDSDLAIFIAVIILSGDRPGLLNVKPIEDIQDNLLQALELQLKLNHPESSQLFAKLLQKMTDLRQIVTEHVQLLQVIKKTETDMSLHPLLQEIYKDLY
UniProt P19793: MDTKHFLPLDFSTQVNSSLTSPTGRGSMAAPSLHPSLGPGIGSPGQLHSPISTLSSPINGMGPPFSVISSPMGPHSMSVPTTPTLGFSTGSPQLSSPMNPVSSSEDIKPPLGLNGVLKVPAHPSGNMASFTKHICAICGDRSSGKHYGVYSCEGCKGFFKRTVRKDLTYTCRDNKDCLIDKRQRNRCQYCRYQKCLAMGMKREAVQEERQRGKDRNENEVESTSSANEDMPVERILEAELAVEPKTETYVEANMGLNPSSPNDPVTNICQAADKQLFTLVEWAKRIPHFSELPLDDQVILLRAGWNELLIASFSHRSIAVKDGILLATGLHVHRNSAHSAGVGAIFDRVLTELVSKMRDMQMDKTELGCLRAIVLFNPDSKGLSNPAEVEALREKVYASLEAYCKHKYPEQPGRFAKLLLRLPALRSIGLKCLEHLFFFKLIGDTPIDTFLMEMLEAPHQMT

[6] = target: HOXA5 (Homo sapiens) (UniProt P20719)
[7] = target: GATA4 (Homo sapiens) (UniProt P43694)
[8] = target: T2, SCAPER (Homo sapiens) (UniProt Q9BY12)
T2 sequence (looked up, limits assumed): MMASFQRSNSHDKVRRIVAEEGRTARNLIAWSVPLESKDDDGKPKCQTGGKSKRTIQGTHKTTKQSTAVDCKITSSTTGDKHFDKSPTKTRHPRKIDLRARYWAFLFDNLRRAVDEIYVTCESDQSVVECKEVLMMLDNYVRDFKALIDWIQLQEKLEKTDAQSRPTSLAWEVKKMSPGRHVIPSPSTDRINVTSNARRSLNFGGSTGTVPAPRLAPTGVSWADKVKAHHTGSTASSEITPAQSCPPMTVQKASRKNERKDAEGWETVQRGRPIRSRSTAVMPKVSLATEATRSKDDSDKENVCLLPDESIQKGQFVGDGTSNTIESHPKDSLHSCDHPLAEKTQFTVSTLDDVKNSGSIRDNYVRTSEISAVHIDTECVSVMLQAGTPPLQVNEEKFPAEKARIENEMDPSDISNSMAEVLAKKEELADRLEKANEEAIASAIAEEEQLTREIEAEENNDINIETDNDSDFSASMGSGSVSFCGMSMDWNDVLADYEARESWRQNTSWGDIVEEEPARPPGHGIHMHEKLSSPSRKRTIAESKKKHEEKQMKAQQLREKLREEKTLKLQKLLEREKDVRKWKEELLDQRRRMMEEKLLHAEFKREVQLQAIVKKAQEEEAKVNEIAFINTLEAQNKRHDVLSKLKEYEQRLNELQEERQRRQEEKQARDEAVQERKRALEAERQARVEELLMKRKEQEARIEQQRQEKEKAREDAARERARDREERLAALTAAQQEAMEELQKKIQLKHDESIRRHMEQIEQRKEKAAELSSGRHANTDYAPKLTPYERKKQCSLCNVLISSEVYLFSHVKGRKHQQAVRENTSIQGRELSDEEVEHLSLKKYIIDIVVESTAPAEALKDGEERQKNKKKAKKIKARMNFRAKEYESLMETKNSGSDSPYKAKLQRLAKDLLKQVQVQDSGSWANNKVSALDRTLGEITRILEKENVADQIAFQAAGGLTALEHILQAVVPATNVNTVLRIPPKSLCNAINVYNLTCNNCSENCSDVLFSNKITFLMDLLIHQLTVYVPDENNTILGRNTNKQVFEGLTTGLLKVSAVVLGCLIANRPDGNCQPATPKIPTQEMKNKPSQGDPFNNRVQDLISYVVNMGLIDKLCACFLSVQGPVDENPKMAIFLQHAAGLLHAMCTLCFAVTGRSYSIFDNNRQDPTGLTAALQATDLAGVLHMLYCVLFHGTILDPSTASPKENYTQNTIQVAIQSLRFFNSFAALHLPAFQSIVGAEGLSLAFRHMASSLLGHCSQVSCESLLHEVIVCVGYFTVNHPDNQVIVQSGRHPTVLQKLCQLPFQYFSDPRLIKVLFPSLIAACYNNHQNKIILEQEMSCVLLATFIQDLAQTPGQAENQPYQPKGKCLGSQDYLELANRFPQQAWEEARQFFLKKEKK

[9] = target: PPARG (Homo sapiens) (UniProt P37231)
[10] = target: T3, RNF138 (Homo sapiens) (UniProt Q8WVD3)
T3 sequence (looked up, limits assumed): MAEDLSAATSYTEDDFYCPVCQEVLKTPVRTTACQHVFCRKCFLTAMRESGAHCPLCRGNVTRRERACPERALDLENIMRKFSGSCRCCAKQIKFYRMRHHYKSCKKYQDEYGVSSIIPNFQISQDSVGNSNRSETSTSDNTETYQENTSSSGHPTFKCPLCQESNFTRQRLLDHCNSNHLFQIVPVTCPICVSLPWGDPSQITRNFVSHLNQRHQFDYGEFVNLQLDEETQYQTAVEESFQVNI

[11] = target: T4, ZCCHC7 (Homo sapiens) (UniProt Q8N3Z6)
T4 sequence (looked up, limits assumed): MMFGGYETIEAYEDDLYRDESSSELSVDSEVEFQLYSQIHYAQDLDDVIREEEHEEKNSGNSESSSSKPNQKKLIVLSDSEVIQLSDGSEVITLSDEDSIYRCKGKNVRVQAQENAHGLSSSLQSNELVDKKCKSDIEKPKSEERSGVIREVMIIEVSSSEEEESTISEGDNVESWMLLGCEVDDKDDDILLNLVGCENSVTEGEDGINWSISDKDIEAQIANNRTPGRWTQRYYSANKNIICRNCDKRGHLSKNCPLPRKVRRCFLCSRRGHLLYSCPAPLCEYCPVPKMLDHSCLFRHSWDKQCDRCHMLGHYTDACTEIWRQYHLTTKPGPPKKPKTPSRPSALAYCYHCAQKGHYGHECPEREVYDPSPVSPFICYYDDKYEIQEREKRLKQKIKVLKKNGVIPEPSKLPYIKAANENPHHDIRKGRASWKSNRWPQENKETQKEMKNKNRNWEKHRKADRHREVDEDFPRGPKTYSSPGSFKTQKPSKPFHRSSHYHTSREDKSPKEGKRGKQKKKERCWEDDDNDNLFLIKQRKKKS

[12] = target: RXRA (Homo sapiens) (UniProt P19793)

Measured: binding result

GGCGCTCGCTGGTGACGAAAGGCGCTCGCTGGTGACGCCCTATAGTGAGTGCTATTA (double strand) [M205]
binds: [1] | [2] | [3] | [4] | [5]

CGTCACTTCAAACGTCACTTCCCCTATAGTGAGTGCTATTA (double strand) [M69]
binds: [1] | [6] | [7] | [2] | [4] | [5] | [8]

AGAGTCCGTTTAGAGTCCGCCCTATAGTGAGTGCTATTA (double strand) [M432]
binds: [1] | [6] | [9] | [2] | [4] | [10] | [8]

AGGTCGTGCAAAAGGTCGTGCCCCTATAGTGAGTGCTATTA (double strand) [M399]
binds: [1] | [6] | [9] | [7] | [2] | [3] | [11] | [4] | [10] | [8]

CGTTGATCTTTCGTTGATCCCCTATAGTGAGTGCTATTA (double strand) [M415]
binds: [12] | [1] | [6] | [9] | [7] | [2] | [11] | [8]

TTCCGCCAAATTCCGCCCCCTATAGTGAGTGCTATTA (double strand) [M82]
binds: [1] | [6] | [7] | [2] | [4] | [10] | [8]

AGCGGCGAAAAGCGGCGCCCTATAGTGAGTGCTATTA (double strand) [M291]
binds: [2] | [3] | [4] | [5] | [8]

GCGCGCGCGAAAGCGCGCGCGCCCTATAGTGAGTGCTATTA (double strand) [M212]
binds: [1] | [9] | [7] | [2] | [3] | [4] | [8]

CGCCTGCGCAAACGCCTGCGCCCCTATAGTGAGTGCTATTA (double strand) [M61]
binds: [6] | [10]

CGCACGCGCAAACGCACGCGCCCCTATAGTGAGTGCTATTA (double strand) [M63]
binds: [12] | [1] | [2] | [4]

CGGGCAAAGGCCAAAACGGGCAAAGGCCACCCTATAGTGAGTGCTATTA (double strand) [M26]
binds: [12] | [1] | [6] | [9] | [7] | [2] | [3] | [11] | [10] | [8]

GAAAGGCGAAAAGAAAGGCGACCCTATAGTGAGTGCTATTA (double strand) [M391]
binds: [1] | [9] | [7] | [2] | [3] | [4]

GGGTACGGAAAGGGTACGGCCCTATAGTGAGTGCTATTA (double strand) [M451]
binds: [12] | [1] | [6] | [7] | [2] | [10] | [8]

CGGCAGCTTTCGGCAGCCCCTATAGTGAGTGCTATTA (double strand) [M308]
binds: [12] | [1] | [6] | [9] | [7] | [2] | [3] | [4] | [8]

CCTCGGCCGCCCCCTCGCGGCAAACCTCGGCCGCCCCCTCGCGGCCCCTATAGTGAGTGCTATTA (double strand) [M30]
binds: [12] | [1] | [7] | [2] | [11] | [4] | [5] | [8]

ACGGAGTAAAAACGGAGTACCCTATAGTGAGTGCTATTA (double strand) [M455]
binds: [1] | [6] | [9] | [7] | [2] | [11] | [4] | [5] | [10] | [8]

CCGCTGCAAACCGCTGCCCCTATAGTGAGTGCTATTA (double strand) [M297]
binds: [1] | [9] | [2] | [3] | [4]

From publication PMC3762332
